# Whole data set: some 1,900 compounds, median “excess over highest single agent (ExcessHSA) synergy score, 6x6 matrix” near -83, cut for the lowest 2% near -370. Some of the results follow.
# System: NCI-H446
# Assay: excess over highest single agent (ExcessHSA) synergy score, 6x6 matrix; higher = less synergy (more negative = stronger synergy)
# Conditions: 72 h; CellTiter-Glo viability
row,Compound,excess over highest single agent
1,CC=CC1=C(C(=O)O)N2C(=O)[C@@H](NC(=O)[C@H](N)c3ccc(O)cc3)[C@H]2SC1 + Cc1sc2c(c1C)C(c1ccc(Cl)cc1)=N[C@@H](CC(=O)OC(C)(C)C)c1nnc(C)n1-2 [NCGC00250412-19],-64
2,CN1C(=O)C(Cc2c[nH]c3ccccc23)NC1=S (stereo unspecified) + Cc1sc2c(c1C)C(c1ccc(Cl)cc1)=N[C@@H](CC(=O)OC(C)(C)C)c1nnc(C)n1-2 [NCGC00250412-19],69.4
3,Cc1cc2c(s1)Nc1ccccc1N=C2N1CCN(C)CC1 + Cc1sc2c(c1C)C(c1ccc(Cl)cc1)=N[C@@H](CC(=O)OC(C)(C)C)c1nnc(C)n1-2 [NCGC00250412-19],-70.9
4,CC(=NNC(=S)N1CCC1)c1ccccn1 + Cc1sc2c(c1C)C(c1ccc(Cl)cc1)=N[C@@H](CC(=O)OC(C)(C)C)c1nnc(C)n1-2 [NCGC00250412-19],-224
5,CCOC(=O)[C@@H](N)CCC(=O)N[C@@H](CSCc1ccccc1)C(=O)N[C@@H](C(=O)OCC)c1ccccc1 + Cc1sc2c(c1C)C(c1ccc(Cl)cc1)=N[C@@H](CC(=O)OC(C)(C)C)c1nnc(C)n1-2 [NCGC00250412-19],15.4
6,Cc1ccc(NC(=O)C2(c3ccc4c(c3)OC(F)(F)O4)CC2)nc1-c1cccc(C(=O)O)c1 + Cc1sc2c(c1C)C(c1ccc(Cl)cc1)=N[C@@H](CC(=O)OC(C)(C)C)c1nnc(C)n1-2 [NCGC00250412-19],-81.1
7,Cn1cc(/C=C2\C(=O)Nc3cccnc32)c2ccccc21 + Cc1sc2c(c1C)C(c1ccc(Cl)cc1)=N[C@@H](CC(=O)OC(C)(C)C)c1nnc(C)n1-2 [NCGC00250412-19],-119
8,CN(C)c1nc(Cc2ccc(NC(=O)c3ccc(C(F)(F)F)cc3)cc2)nc(N(C)C)c1CC(=O)O + Cc1sc2c(c1C)C(c1ccc(Cl)cc1)=N[C@@H](CC(=O)OC(C)(C)C)c1nnc(C)n1-2 [NCGC00250412-19],-14.1
9,CC(C)OC(=O)C(C)(C)Oc1ccc(C(=O)c2ccc(Cl)cc2)cc1 + Cc1sc2c(c1C)C(c1ccc(Cl)cc1)=N[C@@H](CC(=O)OC(C)(C)C)c1nnc(C)n1-2 [NCGC00250412-19],57.2
10,Clc1ccc2c(N3CCN(CCCN4CCN(c5ccnc6cc(Cl)ccc56)CC4)CC3)ccnc2c1 + Cc1sc2c(c1C)C(c1ccc(Cl)cc1)=N[C@@H](CC(=O)OC(C)(C)C)c1nnc(C)n1-2 [NCGC00250412-19],-90
11,CC(=O)c1c(C)c2cnc(Nc3ccc(N4CCNCC4)cn3)nc2n(C2CCCC2)c1=O + Cc1sc2c(c1C)C(c1ccc(Cl)cc1)=N[C@@H](CC(=O)OC(C)(C)C)c1nnc(C)n1-2 [NCGC00250412-19],-14.9

# 2 entries from above, as tab-separated lines:
row	Compound	excess over highest single agent
5	CCOC(=O)[C@@H](N)CCC(=O)N[C@@H](CSCc1ccccc1)C(=O)N[C@@H](C(=O)OCC)c1ccccc1 + Cc1sc2c(c1C)C(c1ccc(Cl)cc1)=N[C@@H](CC(=O)OC(C)(C)C)c1nnc(C)n1-2 [NCGC00250412-19]	15.4
6	Cc1ccc(NC(=O)C2(c3ccc4c(c3)OC(F)(F)O4)CC2)nc1-c1cccc(C(=O)O)c1 + Cc1sc2c(c1C)C(c1ccc(Cl)cc1)=N[C@@H](CC(=O)OC(C)(C)C)c1nnc(C)n1-2 [NCGC00250412-19]	-81.1
